Measured values taken from patent US9951094B2, “Phosphole compound and fluorescent dye containing the same” (NATIONAL UNIVERSITY CORPORATION NAGOYA UNIVERSITY, priority 2014, dated 2018).
Some results were stated once for a whole list of compounds, not compound by compound.

Experiment: Solvent effect on optical properties: Stokes shift vs orientation polarizability Δf
Format: physicochemical
Details: FIG. 1, from Tables 1 to 3

Relationship between Stokes shift and orientation polarizability Δf, linear relationships:
O=P1(c2ccccc2)C(c2ccc(N(c3ccccc3)c3ccccc3)cc2)=Cc2ccccc21 (stereo not drawn) [Compound 2, 2-[4-(N,N-diphenylamino)phenyl]-1-phenylbenzo[b]phosphole-P-oxide]
O=P1(c2ccccc2)C(c2ccc(N(c3ccccc3)c3ccccc3)cc2)=C(c2ccccc2)c2ccccc21 (stereo not drawn) [Compound 1, 2-[4-(N,N-diphenylamino)phenyl]-1,3-diphenylbenzo[b]phosphole-P-oxide]
CN(C)c1ccc(C2=Cc3ccccc3P2(=O)c2ccccc2)cc1 (stereo not drawn) [Compound 3, 2-[4-(N,N-dimethylamino)phenyl]-1-phenylbenzo[b]phosphole-P-oxide]
